# Test results reported in PubChem BioAssay AID2685 (National Center for Advancing Translational Sciences (NCATS), 2010).
# The other results are listed elsewhere or left out. Shown are side measurements of this screen, not its main read-out; they come without a call. Most of these compounds were active or inconclusive in the main read-out, so they are no random draw. Words in brackets tell the shape of the fitted curve; partial curves, single points and poor fits give uncertain potencies.
# Assay: qHTS Assay for Lipid Storage Modulators in Drosophila S3 Cells;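 as to cell number change: cells counted by Cell Tracker Red CMTPX staining in the red channel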
# Conditions: BODIPY lipid droplet fluorescence, 18-24 h; for cell number change: measured here: cell count max response, cells fed with added oleic acid
# Outline: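 Drosophila S3 cells got compounds at several concentrations plus oleic acid (400 uM solution). Laser-scanning cytometry with 488 nm excitation read lipid droplets at 500-530 nm and cells at 575-640 nm. Percent activity was relative to 20 uM Triacsin C.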
# [1] = measured here: lipid fluorescence (Fed channel) AC50, cells fed with added oleic acid
# [2] = measured here: cell number channel AC50, cells fed with added oleic acid
Compound,cell number change,AC50 [1],AC50 [2]
O=C(Nc1ccc(S(=O)(=O)N2CCCCC2)cc1)c1cnccn1,13.1%,"2.06 µM [rising, full curve, poor fit]",–
COC(=O)C1C(=O)C=C(Nc2ccc(F)cc2F)CC1c1ccc(OC)cc1 (stereo not drawn),22.9%,"29.1 µM [rising, single point]",–
Cc1cccc(C)c1N(CC(=O)NCc1ccco1)C(=O)CNS(=O)(=O)c1ccc(F)cc1,-2.56%,–,"0.326 µM [falling, single point]"
Cc1occc1C(=O)Nc1nnc(C2CCCCC2)s1,-29.1%,–,–
CCOC(=O)C1=C(C)NC(=O)C(C(N)=O)C12CCCCC2 (stereo not drawn),-0.74%,"0.0651 µM [falling, full curve, poor fit]",–
O=C(COC(=O)c1cnccn1)Nc1cccc2ccccc12,-0.176%,"6.51 µM [rising, single point]",–
Cc1ccccc1C(=O)NCC(=O)NNC(=O)c1cccc(Cl)c1,-10.7%,–,–
CC(C)CNC(=O)C1CCCN(S(=O)(=O)c2ccc(-n3cnnn3)cc2)C1 (stereo not drawn),5.62%,"9.2 µM [falling, single point]",–
CCc1cccc(C)c1NC(=O)CN1C(=O)c2ccccc2S1(=O)=O,28.8%,"29.1 µM [rising, single point]",–
COc1cc(C(=O)N/C(=C/c2ccc(F)cc2)C(=O)NC(C(=O)O)c2ccccc2)cc(OC)c1OC (stereo not drawn),-33.6%,"5.8 µM [falling, partial curve, poor fit]","8.2 µM [falling, partial curve, poor fit]"
Cc1ccccc1NC(=O)NC1(C(=O)NCc2ccco2)CCCCC1,7.98%,–,–
O=C(Cn1cc2c(n1)CCCCC2)Nc1ccc(F)cc1F,30.8%,–,"29.1 µM [rising, single point]"
O=C(COc1ccc(Cl)cc1)Nc1ccc2c(c1)nc1n2CCOC1,15.1%,"16.4 µM [rising, partial curve]","6.51 µM [rising, single point]"
Cc1nc2cc(OCc3cc(C(=O)NC(C)c4cn(C)nc4C)no3)ccc2s1 (stereo not drawn),19.8%,–,"0.651 µM [rising, full curve, poor fit]"
O=C(Nc1ccc(CN2CCCCC2)cc1)c1cccc(F)c1,90.8%,–,–
Cc1cc(C)n(CC(=O)n2c3c(c4ccccc42)CCCC3)n1,-50.7%,"2.31 µM [rising, partial curve]","29.1 µM [falling, single point]"
COc1ccc2[nH]c(=O)c(CN(C(C)=O)c3ccc(C)cc3C)cc2c1,-16.8%,"3.66 µM [falling, partial curve]",–
CN(CCOc1ccccc1)C(=O)c1ccc2c(=O)n3c(nc2c1)CCC3,46.2%,"6.51 µM [rising, full curve]","7.31 µM [rising, partial curve]"
CC12CCCCC1NS(=O)(=O)OC2 (stereo not drawn),27.8%,"29.1 µM [rising, single point]",–
CC(Sc1nnc(-c2ccncc2)n1-c1ccc(F)cc1)C(=O)NC1CC1 (stereo not drawn),1.95%,"0.517 µM [rising, partial curve]",–
C#CC1(O)CC(C)NCC1(C)CCC#N (stereo not drawn),-41.9%,–,"5.8 µM [falling, full curve]"

# Quoted at random: 3 compounds from above.
Compound,cell number change,AC50 [1],AC50 [2]
Cc1ccccc1C(=O)NCC(=O)NNC(=O)c1cccc(Cl)c1,-10.7%,–,–
Cc1ccccc1NC(=O)NC1(C(=O)NCc2ccco2)CCCCC1,7.98%,–,–
Cc1nc2cc(OCc3cc(C(=O)NC(C)c4cn(C)nc4C)no3)ccc2s1 (stereo not drawn),19.8%,–,"0.651 µM [rising, full curve, poor fit]"

# The list goes on.

Compound,cell number change,AC50 [1],AC50 [2]
CC1=C(C(=O)N2CCOCC2)C(c2c(C)cc(C)cc2C)NC(=S)N1 (stereo not drawn),24.8%,"0.146 µM [rising, full curve]",–
O=C(O)C1CC=CCC1C(=O)N1CCCC1 (stereo not drawn),-8.75%,–,–
Cc1nnc(N2C(=O)C(O)=C(C(=O)c3ccco3)C2c2cccc([N+](=O)[O-])c2)s1 (stereo not drawn),18.9%,"18.4 µM [falling, single point]","4.11 µM [rising, single point]"
COc1ccc(F)cc1S(=O)(=O)N1CCC(C(N)=O)CC1,-15.3%,"0.366 µM [falling, full curve, poor fit]",–
COc1ccc(S(=O)(=O)NC(CC(=O)NCc2ccco2)C(C)C)cc1 (stereo not drawn),–,"0.146 µM [falling, full curve, poor fit]",–
COc1ccc(NC(=O)CN2C(=O)COc3ccccc32)cc1OC,15.7%,–,–
O=C(Cc1ccc2c(c1)OCCO2)Nc1ccc(Cl)c(S(=O)(=O)N2CCOCC2)c1,13.1%,"0.731 µM [falling, full curve]",–
CCCCCCC(O)(c1ccc(OC)cc1)C(CN1CCOCC1)c1ccccc1 (stereo not drawn),19.9%,"6.51 µM [rising, single point]",–
CCC(C)NC(=O)C1c2ccccc2C(=O)N1Cc1ccc(F)cc1 (stereo not drawn),-17.7%,"14.6 µM [falling, partial curve, poor fit]",–
CCOc1ccc(NC(=O)CC2C(=O)N(c3cccc(OC)c3)C(=O)N2CCOC)cc1 (stereo not drawn),12.7%,"3.26 µM [falling, partial curve]",–
CC(C)Oc1ccccc1C1CC(=O)Nc2cc3c(cc21)OCO3 (stereo not drawn),-27.5%,"5.17 µM [falling, full curve]",–
CCCOc1ccc(C(=O)Nc2ccc(S(=O)(=O)Nc3onc(C)c3C)cc2)cc1,-25.1%,"9.2 µM [falling, single point]",–
O=C(c1ccccc1)c1nccc2ccccc12,–,–,"0.731 µM [rising, single point]"
Cc1c(C(=O)Nc2nc(-c3ccccn3)cs2)oc2ccccc12,-59.7%,"20.6 µM [falling, partial curve]","20.6 µM [falling, single point]"
Cc1noc(C)c1COC(=O)CCc1nc2ccccc2c(=O)[nH]1,6.81%,"29.1 µM [rising, single point]",–
Oc1c(/C=N/Nc2cccc3cccnc23)ccc2ccccc12,-3.81%,–,–
CCOc1cccc(OCCOc2ccccc2[N+](=O)[O-])c1,-18.3%,"14.6 µM [rising, partial curve, poor fit]",–
CCc1cc2c3c(c(=O)oc2cc1OC(C)C(=O)O)CCCC3 (stereo not drawn),22.8%,"29.1 µM [rising, single point]","0.103 µM [rising, full curve, poor fit]"
CC(=O)c1ccc(NC(=O)c2ccc(N3CCCC3=O)cc2)cc1,19.5%,–,–
c1cnc2c(c1)ccc1cccnc12,-31.8%,"29.1 µM [falling, partial curve, poor fit]","32.6 µM [falling, partial curve, poor fit]"
NS(=O)(=O)c1ccc(NC(=O)CSc2nc(Nc3ccccc3)nc(N3CCOCC3)n2)cc1,-8.11%,"0.82 µM [rising, partial curve]",–

Compound,cell number change,AC50 [1],AC50 [2]
NC(=O)c1ccsc1NC(=O)COC(=O)Cc1ccsc1,–,–,"3.26 µM [falling, single point]"
CC(=O)Nc1c(-c2ccccc2)nc2ncccn12,-7.99%,"0.0206 µM [falling, full curve, poor fit]",–
CC(OC(=O)c1ccc(NS(=O)(=O)c2ccc3[nH]c(=O)[nH]c3c2)cc1)C(N)=O (stereo not drawn),3.95%,–,–
COc1ccc(NC(=O)c2cncc(Br)c2)cc1S(N)(=O)=O,-3.52%,"0.13 µM [falling, full curve, poor fit]",–
Cc1nn(Cc2ccc(F)cc2)c(C)c1NC(=O)C1c2ccccc2Oc2ccccc21,-33.3%,"20.6 µM [falling, partial curve]","13 µM [falling, partial curve, poor fit]"
Cn1ccnc1C1CCCCN1C(=O)c1cc(COc2ccc(F)cc2Cl)on1 (stereo not drawn),-5.86%,"0.92 µM [rising, single point]",–
COC(C(=O)Nc1ccnn1C1CCN(C(=O)c2ccc(C)cc2)CC1)c1ccccc1 (stereo not drawn),–,–,"6.51 µM [falling, partial curve]"
CC1CN(C(=O)c2cc3c(=O)n4ccccc4nc3s2)CC(C)O1 (stereo not drawn),10.9%,"14.6 µM [rising, single point]",–
COc1ccc(NC(=O)Nc2cccc3ccccc23)c(OC)c1,22.6%,"5.8 µM [rising, partial curve]",–
O=S(=O)(NCCc1ccccc1)c1ccc(Br)cc1,-7.94%,"0.291 µM [rising, full curve, poor fit]",–
O=C(COC(=O)c1ccc(O)cc1)Nc1ccc(Cl)cc1,32.5%,–,–
Cc1ccc(S(=O)(=O)N2[C@@H](c3ccccc3F)C(C(=O)O)=CC[C@H]2c2cccc(C)c2)cc1,-21.6%,–,–
CCOc1ccc(S(=O)(=O)NC(C)C)cc1C(N)=O,19.3%,"0.092 µM [falling, full curve, poor fit]","0.116 µM [falling, full curve, poor fit]"
N=C1CCCN1CC(=O)c1cccs1,-9.24%,–,"2.59 µM [rising, single point]"
Cc1ccc(-n2nc(C)c(C(=O)Nc3cccc(C(=O)NC4CC4)c3)n2)c(C)c1,-9.8%,"0.82 µM [rising, single point]",–
COc1ccc2[nH]cc(CCNC(=O)c3ccc([N+](=O)[O-])cc3)c2c1,-6.01%,"5.17 µM [falling, single point]",–
COc1ccc(Oc2c(C)nc(SCC(=O)c3ccc(Cl)cc3)[nH]c2=O)cc1,-8.13%,–,"0.103 µM [falling, full curve, poor fit]"
CC[n+]1ccccc1/C=C/c1ccc(N(C)C)cc1,-104%,"18.4 µM [falling, partial curve]","20.6 µM [falling, partial curve]"
COc1ccc(C)cc1NC(=O)COC(=O)c1ccc2ccccc2n1,-2.63%,"18.4 µM [rising, single point]",–
